# From the supplement of paper PMC8732350
# Where “and” joins values, the source holds several entries; their conditions need not be identical. Identical values can stand only once. Counter-ions that a name gives are not always drawn. ± gives the standard deviation of the averaged measurements. The list shows a part of the results. Repeats in this data set agree poorly, so a single value says little.
# Tested on: A549
# Experiment: surface PD-L1 immunofluorescence intensity relative to IFN-gamma-only control (ratio); higher = more PD-L1 expression
# Conditions: 10 µM; exposure time 24 h; IFN-gamma 100 ng/mL
row,SMILES,surface PD-L1 immunofluorescence intensity
1,COc1cc2c(cc1OC)-c1c/c(=N\c3c(C)cc(C)cc3C)n(C)c(=O)n1CC2 [Trequinsin hydrochloride],0.884
2,Cc1cccc(Nc2ccncc2S(=O)(=O)NC(=O)NC(C)C)c1 [Torsemide],1.02
3,O=C(c1ccc(F)cc1)N1CCC[C@H](c2nc(-c3ccc(F)cc3)no2)C1,1.05
4,O=C1Nc2ccc(I)cc2/C1=C/c1cc(Br)c(O)c(Br)c1,0.977 and 0.964
5,O=C1N=C(O)NC1(c1ccccc1)c1ccccc1 [Phenytoin sodium (Dilantin)],1.01
6,CC[N+](CC)(CC(=O)Nc1c(C)cccc1C)Cc1ccccc1 [Denatonium benzoate],0.963
7,COc1cc(NS(=O)(=O)c2ccc(N)cc2)nc(OC)n1 [Sulfadimethoxine],1.03
8,CC1(C)O[C@@H]2[C@@H](CO[C@@]3(COS(N)(=O)=O)OC(C)(C)O[C@@H]23)O1 [Topiramate],1 ± 0.021
9,CN(C)c1cc(NC(=O)CNC(C)(C)C)c(O)c2c1C[C@H]1C[C@H]3[C@H](N(C)C)C(O)=C(C(N)=O)C(=O)[C@@]3(O)C(O)=C1C2=O [Tigecycline],1.09
10,CCNc1nc(Nc2cc(F)c(C(=O)N3CCOCC3)cc2OC)ncc1C(F)(F)F,0.974
11,CC(C)Cn1cnc2c(N)nc3ccccc3c21 [Imiquimod],0.995 ± 0.039
12,Clc1cccc(Nc2nnc(-c3ccccc3)c3ccccc23)c1,1
13,NC(=O)N1c2ccccc2CC(=O)c2ccccc21 [Oxcarbazepine],0.966
14,Oc1nc(-c2ccc(C(F)(F)F)cc2)nc2c1CSCC2,1.02 and 0.897
15,O=S(=O)(c1cccc2c(Cl)cccc12)N1CCCNCC1 [ML 9 hydrochloride],0.98
16,CC1(C)CC(=O)C(C2C3=C(CC(C)(C)CC3=O)Oc3ccccc32)C(=O)C1 (centres undefined),1.02
17,CN1CC(=O)N=C1NC(=O)Nc1cccc(Cl)c1 [Fenobam],0.902
18,CCOCCn1c(N2CCCN(C)CC2)nc2ccccc21 [Emedastine],1.13
19,CC[C@H](C)C(=O)O[C@H]1C[C@H](O)C=C2C=C[C@H](C)[C@H](CC[C@@H](O)C[C@@H](O)CC(=O)O)[C@H]21 [Pravastatin sodium],0.949
20,CC[C@H](C)C(=O)O[C@H]1C[C@H](O)C=C2C=C[C@H](C)[C@H](CC[C@@H](O)C[C@@H](O)CC(=O)O)[C@H]21 [Pravastatin],1.12

row,SMILES,surface PD-L1 immunofluorescence intensity
1,CC[C@H](C)C(=O)O[C@H]1C[C@H](O)C=C2C=C[C@H](C)[C@H](CC[C@@H](O)C[C@@H](O)CC(=O)O)[C@H]21 [Pravastatin sodium salt],0.95
2,Cc1cccn2c(=O)c(-c3nnn[nH]3)cnc12 [Pemirolast potassium],0.801
3,CCCc1c(OCCCOc2ccc(OCC(=O)O)cc2)ccc(C(C)=O)c1O,0.916
4,O=C1CC2(CCCC2)CC(=O)N1CCCCNCC1COc2ccccc2O1 (centres undefined),1.01
5,CC1=C(C(=O)O)N2C(=O)[C@@H](NC(=O)[C@H](N)c3ccccc3)[C@H]2SC1 [Cephalexin (Cefalexin)],1.11
6,CC(C)(C)NCC(O)COc1cccc2c1CC(O)C(O)C2 (centres undefined) [Nadolol],1.09
7,Cc1cccc(C)c1NC(=O)C[N+](C)(C)C,1.1
8,O=C(OCCN1CCCCC1)c1c[nH]c2ccccc12,0.969
9,C[C@H](CCC(=O)NCCS(=O)(=O)O)[C@H]1CC[C@H]2[C@@H]3[C@H](O)C[C@@H]4C[C@H](O)CC[C@]4(C)[C@H]3C[C@H](O)[C@]12C [Taurocholic acid],1.06
10,CC(C)(C)OC(=O)Nc1ccc(-c2cc(C(=O)NCCCCCCC(=O)NO)no2)cc1,0.989
11,Nc1nc(Nc2ccccc2)nc2c1ncn2[C@@H]1O[C@H](CO)[C@@H](O)[C@H]1O,1.06
12,Cc1nc(C)c(C)nc1C [Tetramethylpyrazine],0.96
13,COc1cc2c(cc1Cc1cccc(Cl)c1F)c(=O)c(C(=O)O)cn2[C@H](CO)C(C)C [Elvitegravir (GS-9137)],1.19
14,COc1ccc2cc3[n+](cc2c1OC)CCc1cc2c(cc1-3)OCO2 [Berberine HCl],1.02
15,Nc1ncnc2c1ncn2[C@@H]1O[C@H](CO)C[C@H]1O [Cordycepin],0.963
16,Cn1sc(=O)n(Cc2ccccc2)c1=O,1.04
17,Cc1nccn1CC1CCc2c(c3ccccc3n2C)C1=O (centres undefined) [Ondansetron Hydrochloride],1.05
18,"O=C1C(O)=C(O)C(=O)C(O)=C1O [Tetrahydroxy-1,4-quinone monohydrate]",1.01
19,CC(=O)NC[C@H]1CN(c2ccc(N3CCOCC3)c(F)c2)C(=O)O1 [Linezolid],1.01
